The test can be described thus: qHTS Assay for Lipid Storage Modulators in Drosophila S3 Cells.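 On cell number change: cells counted by Cell Tracker Red CMTPX staining in the red channel.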 Particulars: BODIPY lipid droplet fluorescence, 18-24 h; for cell number change: measured here: cell count max response, cells fed with added oleic acid. The method in brief:
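Drosophila S3 cells loaded with oleic acid (400 uM, as added) and compounds at several concentrations; lipid droplets imaged by 488-nm laser-scanning cytometry, 500–530 nm intensity and object ratio to cell channel. Percent activity normalized to 20 uM Triacsin C.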

[1] abbreviates: measured here: lipid fluorescence (Fed channel) AC50, cells fed with added oleic acid.
[2] abbreviates: measured here: cell number channel AC50, cells fed with added oleic acid.

SMILES strings stand for the structures. This is one part of the list. These are further read-outs of the screen, such as a control signal, another cell line or another target. No call is given for them. The list favours compounds with an active or inconclusive main result. Words in brackets tell the shape of the fitted curve; partial curves, single points and poor fits give uncertain potencies.

For `O=c1cc(O)nc(SCc2ccccc2)n1-c1ccc(Cl)cc1`, the cell number change worked out at 13.3%.
In the case of `Cc1ccc(S(=O)(=O)C(C)C(=O)NCCS(=O)(=O)c2ccc(Cl)cc2)cc1` (centres undefined), the cell number change is -30.1%. Also, under setting [1], the AC50 is 18.4 µM [falling, single point].
Consider `COc1cccc(OC)c1C(=O)N1CCN(Cc2ccc3c(c2)OCO3)CC1`, for which the cell number change is -34.6%. Under setting [2], the AC50 is 32.6 µM [falling, single point].
For `CC(C)c1ccc(/C=C2\NC(=O)NC2=O)cc1`, the cell number change is -35.2%. For the same compound, under setting [2], the AC50 is 11.6 µM [falling, partial curve, poor fit].
Regarding `Cc1ccccc1N1C(=O)C2ON(c3ccccc3)C(c3ccncc3)C2C1=O` (centres undefined), the cell number change amounted to 7.15%.
With `CCCCCCC1CCC(C(=O)Nn2c(C)nc3ccccc3c2=O)CC1` (centres undefined), the cell number change is -51.2%.
With `c1ccc(-c2ccccc2OCCn2cncn2)cc1`, the AC50 under setting [1] was 0.00461 µM [rising, full curve, poor fit].
As for `CCCCCOc1ccc(CSc2n[nH]c(C)n2)cc1`, the cell number change was -15.1%. For the same compound, the AC50 under setting [1] was 29.1 µM [falling, single point].
With `O=C(CNCC1CCCCC1)Nc1ccccc1N1CCCCC1`, the cell number change was -47.2%. The concentration at half-maximal activity (AC50) under setting [2] was 5.8 µM [falling, partial curve, poor fit]. Further, the AC50 under setting [1] was 0.184 µM [falling, full curve, poor fit].
As for `CCN(Cc1cc2cc(C)ccc2[nH]c1=O)C(=O)c1cccc([N+](=O)[O-])c1`, the cell number change was -3.27%. Moreover, the concentration at half-maximal activity (AC50) under setting [2] was 6.51 µM [rising, single point].
Consider `O=C(c1ccc2c(c1)OCO2)N1CCN(c2ccccn2)CC1`, for which the cell number change came out at 31.3%. Further, the AC50 under setting [2] is 1.64 µM [rising, full curve]. Moreover, the AC50 under setting [1] was 2.06 µM [rising, full curve].
Consider `CS(=O)(=O)Nc1ccc([N+](=O)[O-])cc1Oc1ccccc1`, for which the cell number change was -22.5%. Further, under setting [1], the AC50 was 29.1 µM [falling, single point].
Regarding `CCOC(=O)C1=C(C)N(c2ccc(OC)cc2)C(=O)/C1=C\c1ccc(O)c(OCC)c1`, the cell number change is -65.7%. In addition, the half-maximal activity concentration (AC50) under setting [2] is 18.4 µM [falling, partial curve]. Further, under setting [1], the AC50 was 1.84 µM [falling, full curve].
As for `COc1ccc(CCNC(=O)C2Cc3ccccc3C(=O)O2)cc1` (centres undefined), the cell number change is -50.8%. Under setting [1], the AC50 was 0.731 µM [rising, partial curve, poor fit].
With `COc1cc(CC(=O)Nc2ncc(C)s2)cc(OC)c1OC`, the cell number change was found to be 220%. Besides, the concentration at half-maximal activity (AC50) under setting [2] was 8.2 µM [rising, partial curve]. For the same compound, the half-maximal activity concentration (AC50) under setting [1] is 0.291 µM [rising, full curve].
On to `COc1ccc(C)cc1NS(=O)(=O)c1ccc2c(c1)NC(=O)C(C)S2` (centres undefined), for which the cell number change is -22.2%.
In the case of `COc1ccc([C@H]2CC(=O)C=C(c3ccc(-c4ccccc4)c(F)c3)C2)cc1OC`, the cell number change came out at 11.4%. The AC50 under setting [1] was 13 µM [rising, single point].
As to `COc1ccc(C(=O)NCCN2CCOCC2)c(OC)c1`, the cell number change was -8.7%. The concentration at half-maximal activity (AC50) under setting [2] is 6.51 µM [rising, single point]. For the same compound, the half-maximal activity concentration (AC50) under setting [1] was 29.1 µM [rising, single point].
With `Cc1ccc2nc(-c3cccc(NC(=O)c4ccc5c(c4)OCCO5)c3)oc2c1`, the cell number change amounted to 9.91%. The concentration at half-maximal activity (AC50) under setting [1] was 11.6 µM [rising, single point].
For the compound `O=C(O)C1CCCN1S(=O)(=O)c1cccs1` (centres undefined), the cell number change was -70.6%. Under setting [2], the AC50 is 29.1 µM [falling, single point].
Take `CCn1c(CNC(=O)C23CC4CC(CC(C4)C2)C3)nnc1SC`: the cell number change was found to be 7.63%. Moreover, the AC50 under setting [1] is 1.84 µM [rising, single point].
`CCOC(=O)c1c(NC(=O)c2ccco2)sc2c1CCCC2`: the cell number change was 2.25%. The concentration at half-maximal activity (AC50) under setting [1] was 0.82 µM [rising, single point].
For `O=C(O)c1cccc(NC(=S)NC(=O)c2ccc(-c3ccc(Cl)cc3)o2)c1`, the cell number change was 8.8%. The AC50 under setting [2] is 3.26 µM [falling, single point]. Further, under setting [1], the AC50 was 3.26 µM [falling, single point].
For `O=C(CSc1ccc2ccccc2n1)N/N=C/c1ccc(O)cc1`, the cell number change was -29.5%. Besides, the half-maximal activity concentration (AC50) under setting [1] is 16.4 µM [falling, single point].
Consider `CCC(=O)Nc1c(C)c(CC)nc2ccccc12`, for which the cell number change was -51%. Under setting [2], the AC50 is 10.3 µM [falling, partial curve].
`Cc1ccc(C(=O)OCc2nc3ccsc3c(=O)[nH]2)o1`: the AC50 under setting [1] is 0.58 µM [rising, single point].
On to `O=C(CCCOc1ccccc1)Nc1cc(S(=O)(=O)N2CCOCC2)ccc1N1CCOCC1`, for which the cell number change is 6.55%. Besides, the AC50 under setting [1] was 0.291 µM [falling, full curve, poor fit].
On to `COc1ccc(CNC(=O)c2ccc(N(C)S(=O)(=O)c3ccc(C)cc3)cc2)cc1`, for which the cell number change is -24.6%.
On to `Nc1nc(CSc2ncn(-c3ccccc3)n2)cs1`, for which the cell number change was 8.43%. The AC50 under setting [1] is 1.64 µM [rising, partial curve].
For the compound `CC(C)CCNc1nnnc2c1sc1nc(N3CCOCC3)c3c(c12)CC(C)(C)SC3`, the cell number change came out at 4.7%. In addition, under setting [1], the half-maximal activity concentration (AC50) is 0.206 µM [rising, full curve, poor fit].
`FC(F)Sc1ccc(NC(=S)N2CCN(c3ccccn3)CC2)cc1`: the cell number change worked out at 18.1%. The AC50 under setting [1] was 1.84 µM [rising, full curve].
Take `CN1CCN(NC(=O)c2ccc(Cl)s2)CC1`: the AC50 under setting [1] was 0.58 µM [rising, single point].
As for `O=C(Nc1cc(C(F)(F)F)ccc1-n1cncn1)c1ccc(-c2ccccc2)cc1`, the cell number change is -18.3%. Besides, under setting [1], the AC50 was 32.6 µM [falling, single point].
Turning to `O=C(Nc1ccc2c(c1)OCO2)c1ccc(S(=O)(=O)NCC2CCCO2)cc1` (centres undefined), the cell number change is 8.2%.
Take `COc1ccc(CN2C[C@H](Cc3ccccc3)[C@@H](CC(=O)Nc3ccccc3)C2=O)cc1`: the cell number change was -7.19%. Also, the AC50 under setting [1] is 0.651 µM [falling, full curve, poor fit].
With `COc1cc(/C=C/C(=O)OCC(=O)NCCc2ccc(S(N)(=O)=O)cc2)ccc1OCC#N`, the cell number change turned out to be 27.3%.
For `COC(=O)Cn1c(=O)c2c(nc3n2CCCN3CCc2ccc(OC)c(OC)c2)n(C)c1=O`, the cell number change was -1.55%. Moreover, under setting [1], the concentration at half-maximal activity (AC50) was 0.0082 µM [rising, full curve, poor fit].
`O=C(NC(=S)NCCC1=CCCCC1)c1ccccc1Br`: the cell number change came out at 14.8%. In addition, the AC50 under setting [1] is 5.8 µM [rising, partial curve, poor fit].
With `O=C(Cc1ccccc1)NCC(=O)OCC(=O)c1ccc(Cl)c([N+](=O)[O-])c1`, the cell number change was -26.4%.
For the compound `Cc1ccc(NCc2ccccc2F)cc1`, the cell number change was -5.9%. The half-maximal activity concentration (AC50) under setting [1] is 6.51 µM [falling, single point].
`Cc1ccc(S(=O)(=O)N2CCCC2C(=O)OCc2ccco2)cc1` (centres undefined): the cell number change is 4.19%. For the same compound, the AC50 under setting [1] was 16.4 µM [rising, partial curve, poor fit].
Take `COc1cc(O)c(CCC(=O)c2cc(OC)c(OC)c(OC)c2)c(OC)c1`: the cell number change was 20.8%. Besides, the AC50 under setting [1] is 20.6 µM [rising, single point].
As for `Cc1ccc(C(=O)NCC(=O)NCC(=O)OCC(=O)c2ccc([N+](=O)[O-])cc2)cc1`, the cell number change is -6.51%.
For `O=C(NCCCSc1ccccc1)c1cccnc1`, the cell number change came to 14.1%. Besides, under setting [1], the concentration at half-maximal activity (AC50) was 0.103 µM [falling, full curve, poor fit].
Regarding `CC(C)(C)n1cnc2cc(NS(=O)(=O)c3ccccc3)ccc21`, the cell number change is -3.03%. In addition, the AC50 under setting [1] is 2.31 µM [rising, partial curve].
Take `CCCCCC(=O)NC(=S)Nc1cccc(-c2nc3ncccc3o2)c1`: the cell number change came out at 15.9%. The AC50 under setting [1] was 29.1 µM [rising, single point].
Consider `CN(Cc1ccccc1)c1nc2c(c(=O)[nH]c(=O)n2C)n1Cc1ccccc1`, for which the cell number change turned out to be 18.1%. Also, under setting [1], the half-maximal activity concentration (AC50) was 4.11 µM [rising, full curve].
On to `COc1ccc(-c2nc(-c3ccccc3)c(-c3cc([N+](=O)[O-])ccc3C)[nH]2)cc1OC`, for which the cell number change was 19.4%. Further, under setting [2], the AC50 was 0.259 µM [rising, full curve, poor fit].
For `O=C(CN(C1CCCCC1)S(=O)(=O)c1ccc(Br)cc1)NCc1ccncc1`, the cell number change was -36.9%. The AC50 under setting [2] is 6.51 µM [falling, partial curve, poor fit].
As to `COc1ccccc1NC(=O)N(Cc1cc2cc(OC)c(OC)cc2[nH]c1=O)CC1CCCO1` (centres undefined), the cell number change came out at 18.8%. Under setting [1], the concentration at half-maximal activity (AC50) was 1.46 µM [rising, full curve].
For the compound `O=C(Nc1nnc(Cc2ccccc2)s1)c1ccco1`, the cell number change was -38.4%. Further, the half-maximal activity concentration (AC50) under setting [2] was 4.61 µM [falling, full curve]. Besides, the concentration at half-maximal activity (AC50) under setting [1] is 6.51 µM [falling, single point].
On to `COc1cccc(NC(=O)CN(C)C(=O)CNC(=O)c2ccc(Oc3ccccc3)cc2)c1`, for which the cell number change is -6.43%.
`C=C(C)C1CC=C(C)/C(=N/NC(=O)c2ccc(NC(=O)CCC)cc2)C1` (centres undefined): the cell number change stood at 30.2%. In addition, the AC50 under setting [2] is 29.1 µM [rising, single point].
Consider `CC(C)C(OC(=O)c1cccs1)C(=O)NCCc1ccccc1` (centres undefined), for which the cell number change came out at 4.62%. The AC50 under setting [1] was 29.1 µM [rising, single point].
For `O=C(COc1ccc2c(c1)C(=O)CC1(CCCCC1)O2)NCc1ccccc1`, the cell number change is 16.2%.
As to `CC(C)(C)OC(=O)NN1CC(=O)N2Cc3[nH]c4ccccc4c3C[C@H]2C1=O`, the cell number change is -36.2%. For the same compound, the half-maximal activity concentration (AC50) under setting [2] is 20.6 µM [falling, single point].
Regarding `c1ccc(CC2CNc3ccccc3CN2)cc1` (centres undefined), the cell number change came to 4.2%. Moreover, the AC50 under setting [1] is 0.00411 µM [rising, full curve, poor fit].
Consider `O=C(CN1C(=O)S/C(=C/c2cccn2-c2ccc(O)cc2)C1=O)N1CCCC1`, for which the cell number change was -18.1%.
With `CN1/C(=C\C=C(/C#N)C(=O)Nc2ccccc2F)C(C)(C)c2ccccc21`, the cell number change was determined as 52.2%. Moreover, under setting [2], the AC50 is 29.1 µM [rising, single point].
With `C=CCN(C(=O)CCC(=O)Nc1cc(C)on1)C(C(=O)NC1CCCC1)c1ccc(OC)c(OC)c1` (centres undefined), the cell number change is -4.76%. For the same compound, the AC50 under setting [1] was 29.1 µM [falling, single point].
As for `Nc1nnc(SCC(=O)Nc2cc(C(F)(F)F)ccc2N2CCOCC2)s1`, the cell number change was -79.8%. Further, the AC50 under setting [2] is 8.2 µM [falling, partial curve]. Besides, the concentration at half-maximal activity (AC50) under setting [1] was 7.31 µM [falling, partial curve].
With `CCCn1c(SCC(N)=O)nnc1-c1ccco1`, the cell number change is -4.62%.
With `Cc1ccc2nc(-c3ccncc3)c(NC3CCCC3)n2c1`, the cell number change is 70.2%. Further, the concentration at half-maximal activity (AC50) under setting [2] is 29.1 µM [rising, single point]. Besides, the half-maximal activity concentration (AC50) under setting [1] was 29.1 µM [rising, single point].

Source of the values: PubChem BioAssay AID2685 (National Center for Advancing Translational Sciences (NCATS), 2010).
